This is one part of the list.

By UniProt entry, the sequences of proteins in these tests, tags left out. Where a name states a change or a piece, a line headed by the entry shows the natural chain unless it says otherwise.
UniProt Q9NQC8: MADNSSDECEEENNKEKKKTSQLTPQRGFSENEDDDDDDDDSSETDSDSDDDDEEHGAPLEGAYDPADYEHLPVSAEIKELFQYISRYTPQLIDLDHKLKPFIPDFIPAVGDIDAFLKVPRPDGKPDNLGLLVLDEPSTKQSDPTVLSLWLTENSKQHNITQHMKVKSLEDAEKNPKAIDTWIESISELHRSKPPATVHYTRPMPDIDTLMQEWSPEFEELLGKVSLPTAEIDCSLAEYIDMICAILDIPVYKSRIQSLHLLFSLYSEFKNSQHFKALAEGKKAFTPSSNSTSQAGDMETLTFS
UniProt Q9Y2F5: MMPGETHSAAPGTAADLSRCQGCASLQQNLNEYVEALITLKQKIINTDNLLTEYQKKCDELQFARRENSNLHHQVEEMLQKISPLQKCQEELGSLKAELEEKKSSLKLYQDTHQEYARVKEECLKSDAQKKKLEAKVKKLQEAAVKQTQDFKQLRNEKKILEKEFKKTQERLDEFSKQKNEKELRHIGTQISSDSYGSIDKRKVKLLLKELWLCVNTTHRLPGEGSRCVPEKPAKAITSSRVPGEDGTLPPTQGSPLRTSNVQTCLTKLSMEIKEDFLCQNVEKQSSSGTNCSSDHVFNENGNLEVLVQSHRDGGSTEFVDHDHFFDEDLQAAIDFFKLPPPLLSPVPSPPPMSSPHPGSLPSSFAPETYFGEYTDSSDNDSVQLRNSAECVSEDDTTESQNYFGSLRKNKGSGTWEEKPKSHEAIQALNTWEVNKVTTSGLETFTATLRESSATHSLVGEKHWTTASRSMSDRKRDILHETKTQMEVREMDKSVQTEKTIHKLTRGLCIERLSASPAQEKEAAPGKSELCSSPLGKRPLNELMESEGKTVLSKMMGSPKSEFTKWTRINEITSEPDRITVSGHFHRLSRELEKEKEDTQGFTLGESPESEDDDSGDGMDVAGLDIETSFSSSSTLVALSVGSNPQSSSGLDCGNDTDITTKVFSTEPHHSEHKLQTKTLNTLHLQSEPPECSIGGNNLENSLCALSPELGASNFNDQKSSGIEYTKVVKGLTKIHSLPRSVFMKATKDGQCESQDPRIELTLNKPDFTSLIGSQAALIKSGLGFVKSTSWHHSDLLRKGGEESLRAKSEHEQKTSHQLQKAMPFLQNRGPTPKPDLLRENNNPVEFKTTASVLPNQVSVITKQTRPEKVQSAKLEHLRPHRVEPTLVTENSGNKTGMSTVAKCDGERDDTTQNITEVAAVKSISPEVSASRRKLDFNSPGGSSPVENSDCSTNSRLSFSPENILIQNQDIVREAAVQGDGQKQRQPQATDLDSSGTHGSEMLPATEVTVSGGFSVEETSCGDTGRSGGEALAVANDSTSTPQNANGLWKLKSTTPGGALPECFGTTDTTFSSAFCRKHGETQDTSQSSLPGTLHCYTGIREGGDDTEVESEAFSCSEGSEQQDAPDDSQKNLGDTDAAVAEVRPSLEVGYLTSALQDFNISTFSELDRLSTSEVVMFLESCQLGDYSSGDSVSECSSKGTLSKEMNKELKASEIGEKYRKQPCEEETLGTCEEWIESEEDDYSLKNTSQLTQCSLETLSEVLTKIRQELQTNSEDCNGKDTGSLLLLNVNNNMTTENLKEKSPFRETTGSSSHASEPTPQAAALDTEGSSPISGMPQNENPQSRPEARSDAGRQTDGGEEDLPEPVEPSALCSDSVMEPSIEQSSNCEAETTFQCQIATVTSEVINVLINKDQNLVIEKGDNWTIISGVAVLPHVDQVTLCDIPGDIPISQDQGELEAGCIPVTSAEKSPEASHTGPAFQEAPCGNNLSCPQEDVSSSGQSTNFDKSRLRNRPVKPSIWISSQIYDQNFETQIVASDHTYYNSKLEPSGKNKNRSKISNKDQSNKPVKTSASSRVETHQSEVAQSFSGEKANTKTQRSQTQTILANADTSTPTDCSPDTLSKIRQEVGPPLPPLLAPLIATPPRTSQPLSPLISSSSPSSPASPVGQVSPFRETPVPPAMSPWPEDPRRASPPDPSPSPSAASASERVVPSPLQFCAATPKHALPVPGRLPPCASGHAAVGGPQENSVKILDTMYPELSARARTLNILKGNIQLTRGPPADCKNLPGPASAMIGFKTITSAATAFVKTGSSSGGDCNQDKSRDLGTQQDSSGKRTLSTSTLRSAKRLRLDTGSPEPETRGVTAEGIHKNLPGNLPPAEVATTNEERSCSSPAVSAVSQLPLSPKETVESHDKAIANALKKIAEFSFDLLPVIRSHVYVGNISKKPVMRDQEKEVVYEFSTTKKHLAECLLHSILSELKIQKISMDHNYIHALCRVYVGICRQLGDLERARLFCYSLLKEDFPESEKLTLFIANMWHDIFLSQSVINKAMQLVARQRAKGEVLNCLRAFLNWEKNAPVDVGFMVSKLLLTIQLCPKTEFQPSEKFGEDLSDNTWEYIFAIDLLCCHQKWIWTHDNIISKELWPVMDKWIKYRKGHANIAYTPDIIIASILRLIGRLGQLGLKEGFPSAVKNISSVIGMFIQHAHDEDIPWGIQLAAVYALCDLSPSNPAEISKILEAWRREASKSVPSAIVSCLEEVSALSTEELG
UniProt Q96D96: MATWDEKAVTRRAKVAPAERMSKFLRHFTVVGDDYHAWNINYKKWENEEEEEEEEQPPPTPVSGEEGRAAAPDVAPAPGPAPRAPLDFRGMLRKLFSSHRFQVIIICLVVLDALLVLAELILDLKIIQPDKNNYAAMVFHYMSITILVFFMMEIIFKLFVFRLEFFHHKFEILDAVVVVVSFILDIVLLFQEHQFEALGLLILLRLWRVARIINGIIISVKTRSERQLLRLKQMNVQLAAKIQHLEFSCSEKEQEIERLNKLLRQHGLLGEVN
UniProt Q12906, whole entry, looked up: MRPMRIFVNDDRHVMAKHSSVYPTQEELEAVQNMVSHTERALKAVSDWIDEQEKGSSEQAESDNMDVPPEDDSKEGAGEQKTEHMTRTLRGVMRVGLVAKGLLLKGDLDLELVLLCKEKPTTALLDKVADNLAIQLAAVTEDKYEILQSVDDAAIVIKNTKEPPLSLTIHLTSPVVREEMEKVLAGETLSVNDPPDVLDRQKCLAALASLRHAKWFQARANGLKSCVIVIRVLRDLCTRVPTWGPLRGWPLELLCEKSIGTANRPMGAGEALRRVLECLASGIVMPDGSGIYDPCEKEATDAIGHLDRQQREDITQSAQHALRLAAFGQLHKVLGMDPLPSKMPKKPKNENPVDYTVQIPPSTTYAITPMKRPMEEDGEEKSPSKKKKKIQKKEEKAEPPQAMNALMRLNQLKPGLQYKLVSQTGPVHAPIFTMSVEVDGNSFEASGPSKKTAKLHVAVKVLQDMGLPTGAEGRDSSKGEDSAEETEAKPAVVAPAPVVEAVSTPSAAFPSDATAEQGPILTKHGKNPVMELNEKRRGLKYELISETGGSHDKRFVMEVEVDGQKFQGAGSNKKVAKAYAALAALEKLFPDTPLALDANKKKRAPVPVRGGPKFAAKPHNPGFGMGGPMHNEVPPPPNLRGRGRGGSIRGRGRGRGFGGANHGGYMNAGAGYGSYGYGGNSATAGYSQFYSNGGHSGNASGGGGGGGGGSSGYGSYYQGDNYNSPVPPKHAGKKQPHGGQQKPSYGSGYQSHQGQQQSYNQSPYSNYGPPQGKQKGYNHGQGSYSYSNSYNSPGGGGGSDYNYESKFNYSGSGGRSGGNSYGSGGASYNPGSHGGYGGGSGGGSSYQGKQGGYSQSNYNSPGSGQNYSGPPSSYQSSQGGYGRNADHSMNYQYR
UniProt Q08334: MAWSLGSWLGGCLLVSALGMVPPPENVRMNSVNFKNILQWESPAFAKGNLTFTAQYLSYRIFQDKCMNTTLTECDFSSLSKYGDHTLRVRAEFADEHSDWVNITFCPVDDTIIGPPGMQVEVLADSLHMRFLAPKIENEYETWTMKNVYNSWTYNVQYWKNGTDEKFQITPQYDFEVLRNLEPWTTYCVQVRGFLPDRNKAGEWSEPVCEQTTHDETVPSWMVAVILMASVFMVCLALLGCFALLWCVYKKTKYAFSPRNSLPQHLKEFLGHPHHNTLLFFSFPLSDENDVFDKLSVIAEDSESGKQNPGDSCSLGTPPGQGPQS
UniProt Q96F46, whole entry, looked up: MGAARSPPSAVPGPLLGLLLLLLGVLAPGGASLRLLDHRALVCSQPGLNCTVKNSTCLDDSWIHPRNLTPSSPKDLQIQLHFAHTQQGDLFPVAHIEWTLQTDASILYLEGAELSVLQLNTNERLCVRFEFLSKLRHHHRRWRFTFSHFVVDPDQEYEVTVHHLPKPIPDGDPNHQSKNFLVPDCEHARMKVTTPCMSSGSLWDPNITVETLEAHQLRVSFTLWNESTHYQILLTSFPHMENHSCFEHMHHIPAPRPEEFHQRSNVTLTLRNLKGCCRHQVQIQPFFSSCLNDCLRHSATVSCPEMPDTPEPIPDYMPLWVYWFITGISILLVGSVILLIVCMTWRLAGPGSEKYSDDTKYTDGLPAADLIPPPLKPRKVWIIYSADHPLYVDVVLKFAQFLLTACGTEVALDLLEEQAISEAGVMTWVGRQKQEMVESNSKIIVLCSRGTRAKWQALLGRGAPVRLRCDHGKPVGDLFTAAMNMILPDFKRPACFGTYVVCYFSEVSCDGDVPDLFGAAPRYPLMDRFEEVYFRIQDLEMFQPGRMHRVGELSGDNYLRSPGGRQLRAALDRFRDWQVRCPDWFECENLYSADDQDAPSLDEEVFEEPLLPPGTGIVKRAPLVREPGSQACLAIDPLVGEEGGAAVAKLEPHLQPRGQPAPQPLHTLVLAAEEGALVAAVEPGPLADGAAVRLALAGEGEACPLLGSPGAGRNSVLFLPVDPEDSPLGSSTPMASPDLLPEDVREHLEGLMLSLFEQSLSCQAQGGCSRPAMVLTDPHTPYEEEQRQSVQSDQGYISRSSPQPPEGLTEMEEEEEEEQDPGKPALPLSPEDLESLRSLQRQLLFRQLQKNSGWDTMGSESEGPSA
UniProt Q9BYX4: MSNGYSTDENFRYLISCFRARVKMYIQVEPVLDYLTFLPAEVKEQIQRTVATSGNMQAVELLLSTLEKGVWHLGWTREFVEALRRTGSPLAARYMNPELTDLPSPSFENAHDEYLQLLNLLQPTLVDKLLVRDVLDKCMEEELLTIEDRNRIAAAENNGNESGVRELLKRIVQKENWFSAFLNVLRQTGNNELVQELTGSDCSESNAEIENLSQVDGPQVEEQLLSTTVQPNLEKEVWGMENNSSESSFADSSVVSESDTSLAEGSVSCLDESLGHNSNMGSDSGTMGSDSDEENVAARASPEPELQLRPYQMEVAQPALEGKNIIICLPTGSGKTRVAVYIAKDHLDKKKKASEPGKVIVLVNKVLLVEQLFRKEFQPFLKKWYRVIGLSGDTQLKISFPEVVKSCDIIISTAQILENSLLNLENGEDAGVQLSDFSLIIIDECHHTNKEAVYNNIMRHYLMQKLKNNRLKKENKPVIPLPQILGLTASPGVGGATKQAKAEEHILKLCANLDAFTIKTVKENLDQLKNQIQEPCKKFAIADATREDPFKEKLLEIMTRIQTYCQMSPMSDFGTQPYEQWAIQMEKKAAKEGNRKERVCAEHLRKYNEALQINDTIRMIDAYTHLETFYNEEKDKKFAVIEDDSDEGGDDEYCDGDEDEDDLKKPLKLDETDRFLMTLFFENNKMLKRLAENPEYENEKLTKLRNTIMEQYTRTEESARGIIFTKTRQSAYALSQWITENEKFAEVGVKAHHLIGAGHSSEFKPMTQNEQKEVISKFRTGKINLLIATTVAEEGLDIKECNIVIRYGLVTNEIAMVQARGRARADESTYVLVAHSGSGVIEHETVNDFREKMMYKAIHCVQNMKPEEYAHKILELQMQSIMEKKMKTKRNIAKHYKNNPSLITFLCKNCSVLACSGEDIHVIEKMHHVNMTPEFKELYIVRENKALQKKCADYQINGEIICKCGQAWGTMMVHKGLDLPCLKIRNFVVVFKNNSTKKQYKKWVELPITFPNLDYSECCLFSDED
UniProt P01860, whole entry, looked up: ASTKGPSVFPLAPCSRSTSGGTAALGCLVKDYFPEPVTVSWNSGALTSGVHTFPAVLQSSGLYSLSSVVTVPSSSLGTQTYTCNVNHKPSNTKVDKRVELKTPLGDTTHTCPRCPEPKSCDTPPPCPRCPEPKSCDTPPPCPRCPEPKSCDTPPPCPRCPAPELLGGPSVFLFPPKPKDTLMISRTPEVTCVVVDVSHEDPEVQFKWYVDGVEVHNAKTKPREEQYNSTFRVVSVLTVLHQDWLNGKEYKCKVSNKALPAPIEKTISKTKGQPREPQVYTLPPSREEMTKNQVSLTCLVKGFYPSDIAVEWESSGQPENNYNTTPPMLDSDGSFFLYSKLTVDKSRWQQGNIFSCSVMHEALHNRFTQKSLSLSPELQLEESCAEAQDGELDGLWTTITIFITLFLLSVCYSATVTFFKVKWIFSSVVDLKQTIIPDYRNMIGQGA
IGKV3D-7, A0A0C4DH55, UniProt A0A0C4DH55, whole entry, looked up: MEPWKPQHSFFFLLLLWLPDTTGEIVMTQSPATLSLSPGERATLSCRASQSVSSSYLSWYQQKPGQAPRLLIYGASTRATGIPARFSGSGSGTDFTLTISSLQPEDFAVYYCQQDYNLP

Compound in one assay: COC(=O)N[C@@H](C)CNc1nccc(-c2cn(C(C)C)nc2-c2cc(Cl)cc(NS(C)(=O)=O)c2F)n1 [encorafenib]
Description: log2 fold change, soluble protein after heating vs DMSO (PISA); higher = thermal stabilisation; K562 lysate, 10 uM; active = over 0.2 and 3.5 SD of the protein, either way, in both replicates (recomputed). The procedure, abridged: (§1)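 Following dounce homogenisation of K562 pellets in PBS pH 7.4 with 1 mM MgCl2, crude extract at 1 mg/mL protein was incubated for 30 min with 10 μM compound. Aliquots were then heated for 3 min over 48°C-58°C and pooled, NP-40 was added to 0.5% at 4°C, and soluble protein was recovered as the supernatant at 21,000xg for 90 min. Channel-sum-equalised TMTpro 16plex LC-MS/MS quantified this protein. Each value, from duplicates, is a log-two fold change in thermal stability relative to solvent controls.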
As to HUWE1, A0A087X1S3, the log2 fold change is inactive: 0.062.

As for IFT46 isoform 2 (UniProt Q9NQC8), the log2 fold change is inactive: 0.058.

Regarding ICE1 (UniProt Q9Y2F5), the log2 fold change is inactive: 0.114.

Regarding HVCN1 (UniProt Q96D96), the log2 fold change is inactive: 0.262.

On to HYOU1, A0A494C039, for which the log2 fold change is inactive: -0.05.

In the case of IDH3A isoform 2 (UniProt P50213), the log2 fold change was inactive: -0.031.

For IGSF1 isoform 4 (UniProt Q8N6C5), the log2 fold change is inactive: -0.142.

In the case of IMPDH2 (UniProt H0Y4R1), the log2 fold change is inactive: -0.014.

ILF3 (UniProt Q12906): the log2 fold change was inactive: 0.08.

Regarding IL10RB (UniProt Q08334), the log2 fold change was inactive: -0.026.

IL17RA (UniProt Q96F46): the log2 fold change is inactive: -0.1.

Regarding HTD2 (UniProt P86397), the log2 fold change was inactive: 0.178.

For IFIH1 (UniProt Q9BYX4), the log2 fold change was inactive: 0.135.

Consider ICAM4 (UniProt Q14773), for which the log2 fold change was inactive: -0.005.

Compound in a further assay: COC(=O)[C@H](CCSC)NC(=O)C1=C(C=C(C=C1)NC[C@H](CS)N)C2=CC=CC=C2
Described as above. An outline of the steps:
as §1
As to HUWE1, A0A087X1S3, the log2 fold change is inactive: -0.054.

For IFT46 isoform 2 (UniProt Q9NQC8), the log2 fold change was inactive: -0.215.

Consider ICE1 (UniProt Q9Y2F5), for which the log2 fold change was inactive: 0.011.

Take HVCN1 (UniProt Q96D96): the log2 fold change is inactive: -0.164.

On to HYOU1, A0A494C039, for which the log2 fold change is inactive: 0.007.

As to IDH3A isoform 2 (UniProt P50213), the log2 fold change was inactive: 0.054.

As to IGSF1 isoform 4 (UniProt Q8N6C5), the log2 fold change was inactive: -0.1.

IMPDH2 (UniProt H0Y4R1): the log2 fold change is active: -0.505.

Turning to ILF3 (UniProt Q12906), the log2 fold change was inactive: -0.027.

For the target IL10RB (UniProt Q08334), the log2 fold change is inactive: -0.008.

With IL17RA (UniProt Q96F46), the log2 fold change was inactive: -0.038.

For the target HTD2 (UniProt P86397), the log2 fold change is inactive: -0.302.

For the target IFIH1 (UniProt Q9BYX4), the log2 fold change is inactive: 0.101.

Consider ICAM4 (UniProt Q14773), for which the log2 fold change is inactive: -0.095.

Compound in another assay: COc1cc(Nc2ncc3c(n2)-c2ccc(Cl)cc2C(c2c(F)cccc2OC)=NC3)ccc1C(=O)O [alisertib]
Described as above. The procedure, abridged:
as §1
Take INPP5E (UniProt Q9NRR6): the log2 fold change was inactive: -0.087.

On to IFT46 isoform 2 (UniProt Q9NQC8), for which the log2 fold change is inactive: -0.117.

On to ICE1 (UniProt Q9Y2F5), for which the log2 fold change was inactive: 0.136.

For IGLC3 (UniProt P0DOY3), the log2 fold change is inactive: 0.

As for INHBE (UniProt P58166), the log2 fold change was inactive: -0.019.

With HTRA3 (UniProt P83110), the log2 fold change is inactive: 0.127.

Regarding IMPDH2 (UniProt H0Y4R1), the log2 fold change is inactive: -0.038.

For the target IL10RB (UniProt Q08334), the log2 fold change was inactive: 0.032.

IGHG3 (UniProt P01860): the log2 fold change was inactive: -0.074.

As for HTD2 (UniProt P86397), the log2 fold change is inactive: -0.035.

On to IGKV3D-7, A0A0C4DH55, for which the log2 fold change is inactive: -0.161.

Consider IGHM isoform 2 (UniProt P01871), for which the log2 fold change was inactive: -0.073.

Compound in a further assay: COc1cc2nc(-c3cc(F)ccc3O)nc(N[C@@H]3CNC[C@H]3C(C)(C)O)c2cc1OC
The description is as above. An outline of the steps:
as §1
With HUWE1, A0A087X1S3, the log2 fold change is inactive: 0.061.

Consider IFT46 isoform 2 (UniProt Q9NQC8), for which the log2 fold change was inactive: 0.334.

Take IMP4 (UniProt Q96G21): the log2 fold change was inactive: -0.011.

Consider INO80 (UniProt Q9ULG1), for which the log2 fold change is inactive: -0.024.

As for HVCN1 (UniProt Q96D96), the log2 fold change is inactive: 0.339.

As for HYOU1, A0A494C039, the log2 fold change was inactive: -0.004.

For the target HSPH1 (UniProt Q5TBM3), the log2 fold change was inactive: -0.011.

For the target IDH3A isoform 2 (UniProt P50213), the log2 fold change is inactive: -0.02.

Regarding IMPDH2 (UniProt H0Y4R1), the log2 fold change is inactive: -0.035.

As for ILF3 (UniProt Q12906), the log2 fold change was inactive: -0.04.

Regarding IL10RB (UniProt Q08334), the log2 fold change was inactive: -0.014.

Turning to IL17RA (UniProt Q96F46), the log2 fold change was inactive: -0.026.

For the target IGHG3 (UniProt P01860), the log2 fold change is inactive: 0.009.

Regarding HTD2 (UniProt P86397), the log2 fold change was inactive: 0.079.

Turning to IFIH1 (UniProt Q9BYX4), the log2 fold change is inactive: 0.135.

Compound in another assay: COc1cc2ncnc(Nc3ccc(F)c(Cl)c3)c2cc1OCCCN1CCOCC1 [gefitinib]
Described as above. The procedure, abridged:
as §1
Regarding INPP5E (UniProt Q9NRR6), the log2 fold change was inactive: 0.035.

Take IFT46 isoform 2 (UniProt Q9NQC8): the log2 fold change is inactive: 0.

As to ICE1 (UniProt Q9Y2F5), the log2 fold change is inactive: -0.009.

With IGLC3 (UniProt P0DOY3), the log2 fold change is inactive: -0.027.

INHBE (UniProt P58166): the log2 fold change is inactive: -0.076.

In the case of HTRA3 (UniProt P83110), the log2 fold change was inactive: 0.133.

Regarding IMPDH2 (UniProt H0Y4R1), the log2 fold change is inactive: 0.052.

On to IL10RB (UniProt Q08334), for which the log2 fold change was inactive: -0.044.

Turning to IGHG3 (UniProt P01860), the log2 fold change is inactive: 0.388.

As for HTD2 (UniProt P86397), the log2 fold change was inactive: 0.053.

As to IGKV3D-7, A0A0C4DH55, the log2 fold change is inactive: 0.194.

Turning to IGHM isoform 2 (UniProt P01871), the log2 fold change was inactive: -0.256.

Compound in the next assay: CS(=O)(=O)CCNCc1ccc(-c2ccc3ncnc(Nc4ccc(OCc5cccc(F)c5)c(Cl)c4)c3c2)o1 [lapatinib]
The assay is described as above. An outline of the steps:
as §1
In the case of HUWE1, A0A087X1S3, the log2 fold change was inactive: -0.123.

With IFT46 isoform 2 (UniProt Q9NQC8), the log2 fold change was inactive: -0.086.

Turning to IMP4 (UniProt Q96G21), the log2 fold change is inactive: -0.03.

As for INO80 (UniProt Q9ULG1), the log2 fold change was inactive: 0.125.

Turning to HVCN1 (UniProt Q96D96), the log2 fold change is inactive: 0.233.

Consider HYOU1, A0A494C039, for which the log2 fold change was inactive: -0.008.

On to HSPH1 (UniProt Q5TBM3), for which the log2 fold change was inactive: 0.012.

In the case of IDH3A isoform 2 (UniProt P50213), the log2 fold change is inactive: -0.034.

In the case of IMPDH2 (UniProt H0Y4R1), the log2 fold change was inactive: 0.074.

With ILF3 (UniProt Q12906), the log2 fold change was inactive: 0.02.

As for IL10RB (UniProt Q08334), the log2 fold change is inactive: -0.074.

IL17RA (UniProt Q96F46): the log2 fold change was inactive: 0.074.

On to IGHG3 (UniProt P01860), for which the log2 fold change was inactive: 0.29.

Regarding HTD2 (UniProt P86397), the log2 fold change was inactive: -0.065.

Consider IFIH1 (UniProt Q9BYX4), for which the log2 fold change was inactive: -0.034.

The values above are taken from the supplement of paper PMC10849652.
